Values from PubChem BioAssay AID1053208 (Peter MacCallum Cancer Centre, 2014)
Assay: 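Genes whose silencing cuts survival of bone tumour cells only with doxorubicin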 (primary screen). Cells: mouse osteosarcoma cells, early-passage culture from an engineered mouse model of fibroblastic bone tumour. Knock-down reagent: siRNA pool against mouse genes, 40 nM. Timing: about 120 h (48 h before drug, then 72 h with drug). Challenge: doxorubicin 100 nM for 72 h, roughly 30-40% inhibitory dose. Measured: 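Luminescent ATP signal taken as viability with or without 100 nM doxorubicin for 72 h; mean of two wells set against non-targeting siRNA and turned into robust z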. Scale: viability z-score with doxorubicin and doxorubicin viability vs non-targeting: higher = more viable cells under doxorubicin; viability z-score without drug: higher = more viable cells with knock-down alone; z-score of drug to no-drug ratio: higher = less drug sensitisation by knock-down. Rule for the call: 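Called active if knock-down leaves viability unchanged without drug (z within -2 to 2) but lowers it with doxorubicin (z at or under -2)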.
Shown is one part, drawn at random, of about 17,000 deposited reagents. In the full data, 788 (4.7%) got an active call. 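Calls rest on z-score classes alone; an extra cut-off of viability at most 70% of control was not applied to them.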 The numbers tell different reagents against one gene apart. Reagent sequences are not shown.

no.	target gene	reagent	combined z-score class	viability z-score with doxorubicin	viability z-score without drug	z-score of drug to no-drug ratio	doxorubicin viability vs non-targeting	activity call
1	Ost4	1	no change with or without drug	0.34	-0.51	0.79	0.97	inactive
2	Rwdd3	1	no change with or without drug	-0.56	0.17	-0.56	0.89	inactive
3	Rwdd3	2	no change with or without drug	0.11	0.84	-0.34	0.95	inactive
4	Sptssa	1	low cell count with doxorubicin only	-2.59	0.51	-2.92	0.71	active
5	Afap1	1	no change with or without drug	0.34	0.51	0.11	0.97	inactive
6	Rgp1	1	no change with or without drug	-1.91	1.18	-2.59	0.77	inactive
7	Zkscan6	1	no change with or without drug	-0.45	0.84	-0.9	0.9	inactive
8	Ppp2r5d	1	no change with or without drug	0	0.34	-0.11	0.94	inactive
9	Maoa	1	low cell count without drug only	0.45	-2.19	2.47	0.98	inactive
10	Arl8b	1	no change with or without drug	-0.56	-0.84	0.11	0.89	inactive
11	Rpl37a	1	low cell count with and without drug	-5.51	-3.71	-4.05	0.45	inactive
12	Nherf2	1	no change with or without drug	-0.67	-0.84	0	0.88	inactive
13	Ppp4r3a	1	no change with or without drug	0.22	1.69	-0.79	0.96	inactive

The list goes on, starting with the last 2 of the part before.
no.	target gene	reagent	combined z-score class	viability z-score with doxorubicin	viability z-score without drug	z-score of drug to no-drug ratio	doxorubicin viability vs non-targeting	activity call
12	Nherf2	1	no change with or without drug	-0.67	-0.84	0	0.88	inactive
13	Ppp4r3a	1	no change with or without drug	0.22	1.69	-0.79	0.96	inactive
14	Prl8a2	1	no change with or without drug	-1.35	-0.84	-0.79	0.82	inactive
15	H2bc26	1	no change with or without drug	0.22	0.17	0.22	0.96	inactive
16	Rfx1	1	no change with or without drug	-0.45	-0.17	-0.22	0.9	inactive
17	Wipi1	1	no change with or without drug	0.45	1.18	-0.22	0.98	inactive
18	Hbb-bh1	1	no change with or without drug	0.34	0	0.45	0.97	inactive
19	Fscn2	1	no change with or without drug	-0.45	-1.18	0.45	0.9	inactive
20	Klk1b1	1	no change with or without drug	0.22	0.51	0	0.96	inactive
